{"source": "PubChem BioAssay AID540256", "about": "(National Center for Advancing Translational Sciences (NCATS), 2011)", "note": "Out of some 300,000 compounds screened, about 3,700 (1.2%) were called active. Inconclusive means that the source gave no clear call. Such entries were picked first, then a sample of the others. The call rests on the fitted dose curve; tested in HEK293 cells. A potency beside an inconclusive call is a rough fit, not a confirmed value."}
{"assay": "qHTS for Inhibitors of binding or entry into cells for Lassa Virus; further: nearly all actives have a fitted effect of over 50% in size; further: potency means the concentration at half of the fitted maximal effect", "conditions": "Lassa virus pseudotype entry inhibition, cell reporter; series mostly up to 37.9 µM"}
{"compound": "CCOc1ccc(CN2CCN(Cc3cccc4c3OCO4)CC2CCO)cc1", "note": "(configuration not stated)", "Potency": "inactive"}
{"compound": "Cc1cccc(Nc2c(O)nc[nH]c2=O)c1", "Potency": "inactive"}
{"compound": "O=C(NCc1cccnc1)C1CC(c2ccc(F)cc2)=NO1", "note": "(configuration not stated)", "Potency": "inconclusive: 16.4 µM [activator, partial curve, poor fit]"}
{"compound": "Cc1c(Cl)cccc1NC(=S)NC(=O)c1cncc(Br)c1", "Potency": "active: 3.16 µM"}
{"compound": "O=C1c2cnc3nc(SCc4ccccc4)nn3c2CC2c3ccccc3CCN12", "note": "(configuration not stated)", "Potency": "inconclusive: 0.13 µM [activator, single point]"}
{"compound": "CCC1([N+](=O)[O-])COC(c2ccc(C)cc2)OC1", "note": "(configuration not stated)", "Potency": "inconclusive: 0.562 µM [inhibitor, partial curve, poor fit]"}
{"compound": "O=c1[nH]c(=O)n(CC2CCCO2)c(O)c1/C=C1\\C=Nc2ccccc21", "note": "(configuration not stated)", "Potency": "inconclusive: 7.08 µM [inhibitor, partial curve]"}
{"compound": "CN(C)CCNc1ncnc2c1sc1nc(N3CCOCC3)c3c(c12)CC(C)(C)SC3", "Potency": "inconclusive: 25.9 µM [inhibitor, single point]"}
{"compound": "CC(=O)c1ccc(N2CCN(CC(=O)N(C3CC3)C3CCS(=O)(=O)C3)CC2)c(F)c1", "note": "(configuration not stated)", "Potency": "inactive"}
{"compound": "CC(=O)C1=C(C)Nc2ncnn2C1c1ccccc1", "note": "(configuration not stated)", "Potency": "inconclusive: 0.562 µM [activator, full curve, poor fit]"}
{"compound": "COC(=O)c1ccc([N+](=O)[O-])c(CS(=O)(=O)c2ccc(Cl)cc2)c1", "Potency": "inactive"}
{"compound": "CCc1ccc(Nc2nnc(SCC(=O)NCCN3C(=O)CSC3=O)s2)cc1", "Potency": "inconclusive: 13 µM [inhibitor, partial curve, poor fit]"}
{"compound": "COc1cccc(NC(=O)c2cnn(-c3ccccc3)c2-n2cccc2)c1", "Potency": "inactive"}
{"compound": "CCOc1ccc(OCC(=O)Nc2nnc3n2CCS3)cc1", "Potency": "inconclusive: 11.2 µM [activator, partial curve]"}
{"compound": "COc1ccccc1-n1c(/C=C/c2c(C)n(C)c3ccccc23)nc2ccccc2c1=O", "Potency": "inconclusive: 8.91 µM [inhibitor, partial curve, poor fit]"}
{"compound": "O=C(O)Cn1cc(/C=C2\\SC(=O)N(c3ccccc3)C2=O)c2ccccc21", "Potency": "inactive"}
{"compound": "OC(CN1CCN(c2ccccc2)CC1)Cn1c2ccccc2c2ccccc21", "note": "(configuration not stated)", "Potency": "inconclusive: 1.26 µM [activator, partial curve, poor fit]"}
{"compound": "CCc1ccc(Sc2cc(C(=O)NC(C)CC)c3ccccc3n2)cc1", "note": "(configuration not stated)", "Potency": "inconclusive: 5.62 µM [activator, single point]"}
{"compound": "CCOC(=O)c1ccccc1NC1c2ccccc2C(=O)N1c1ccc(C)cn1", "note": "(configuration not stated)", "Potency": "inactive"}
{"compound": "NC(=O)NN=C1C2CCCC1C(c1ccccc1)NC2c1ccccc1", "note": "(configuration not stated)", "Potency": "inconclusive: 7.94 µM [inhibitor, partial curve]"}
{"compound": "c1ccc(-c2n[nH]c(-c3ccccn3)n2)cc1", "Potency": "inconclusive: 3.55 µM [activator, partial curve, poor fit]"}
{"compound": "CSCCC(=O)Nc1cc(S(=O)(=O)N2CCOCC2)ccc1N1CCN(C)CC1", "Potency": "inactive"}
{"compound": "Nc1ccccc1-c1nnc(-c2ccc(-c3ccccc3)cc2)o1", "Potency": "inconclusive: 20.6 µM [inhibitor, partial curve, poor fit]"}
{"compound": "CCOC(=O)c1cc2c(ccn2-c2ccc(F)cc2)n1CC(=O)N(CC)CC", "Potency": "inconclusive: 11.6 µM [inhibitor, partial curve]"}
{"compound": "CCN1CCN(S(=O)(=O)c2ccc(C(=O)Nc3sc4c(c3C(N)=O)CCN(CC)C4)cc2)CC1", "Potency": "inconclusive: 10 µM [inhibitor, partial curve, poor fit]"}
{"compound": "CC(=O)C(Cc1ccccc1)(Cc1ccccc1)C(C)=O", "Potency": "inconclusive: 1.26 µM [inhibitor, single point]"}
{"compound": "CCCCCCNc1cc2n(c(=O)n1)CCc1cc(OC)c(OC)cc1-2", "Potency": "inactive"}
{"compound": "COCCNC(=S)N/N=C(\\C)c1ccc2cc(OC)ccc2c1", "Potency": "active: 8.2 µM"}
{"compound": "O=C1C(=O)N(CCN2CCOCC2)C(c2ccccc2F)/C1=C(\\O)c1ccc(S(=O)(=O)N2CCOCC2)cc1", "note": "(configuration not stated)", "Potency": "inconclusive: 17.8 µM [activator, single point]"}
{"compound": "O=C(NN(c1ccccc1)c1ccccc1)c1ccccc1F", "Potency": "inconclusive: 10 µM [activator, partial curve, poor fit]"}
{"compound": "COc1ccc(N2CC(C(=O)N[C@@H](C)C(=O)N3CCCCC3)CC2=O)cc1", "note": "(some centres not stated)", "Potency": "inconclusive: 5.62 µM [activator, single point]"}
{"compound": "CCOC(=O)C1CCN(C(=O)N(CC)CC)CC1", "Potency": "inconclusive: 3.55 µM [inhibitor, single point]"}
{"compound": "COc1ccc(C(C)=O)cc1COC(=O)CNC(=O)c1ccccc1F", "Potency": "inconclusive: 5.62 µM [inhibitor, single point]"}
{"compound": "CN1CCCN(C(=O)c2cc(-c3cccc4ccccc34)nc3ccccc23)CC1", "Potency": "inconclusive: 12.6 µM [inhibitor, partial curve, poor fit]"}
{"compound": "COC(=O)c1ccc(NC(=O)CSc2nc3ccc(N4C(=O)C5C6C=CC(C6)C5C4=O)cc3s2)cc1", "note": "(configuration not stated)", "Potency": "inconclusive: 25.9 µM [inhibitor, single point]"}
{"compound": "Cc1ccc2nc(/C(C#N)=C\\c3cc(C)n(-c4cccc([N+](=O)[O-])c4)c3C)[nH]c2c1", "Potency": "inconclusive: 18.3 µM [inhibitor, single point]"}
{"compound": "C/C=C(/CCC1NCCc2c1[nH]c1ccccc21)[Si](C)(C)C", "note": "(configuration not stated)", "Potency": "inconclusive: 14.1 µM [inhibitor, partial curve, poor fit]"}
{"compound": "CCN(CCCc1ccccc1)CCCc1ccccc1", "Potency": "inconclusive: 29.1 µM [inhibitor, single point]"}
{"compound": "COc1ccc(CCNC(=O)c2ccccc2NC(=O)c2ccco2)cc1OC", "Potency": "inactive"}
{"compound": "C(#CCN1CCOCC1)COC(c1ccccc1)c1ccccc1", "Potency": "inconclusive: 35.5 µM [inhibitor, single point]"}
{"compound": "CC(C)(C)OC(=O)N1CCC(c2c(C(=O)N3CCN(c4ccccn4)CC3)cnn2-c2ccccc2)CC1", "Potency": "inconclusive: 3.16 µM [inhibitor, partial curve, poor fit]"}
{"compound": "COc1ccccc1NC(=O)CCc1nc(-c2cccs2)no1", "Potency": "inconclusive: 1.41 µM [activator, full curve, poor fit]"}
